From paper PMC5992168
Results are given in words; binding and its absence hold for the method and conditions named. Binding seen in cells or lysates may run through a third protein.

Key:
[1] = target: T1, EAAT3, endogenous mouse (mouse (endogenous in primary neurons)) (UniProt P51906); experiment: FRET or BRET; spectral FRET in fixed mouse primary neurons; immunostained with primary and AF488/Cy3 secondary antibodies; R/G ratio
T1 sequence: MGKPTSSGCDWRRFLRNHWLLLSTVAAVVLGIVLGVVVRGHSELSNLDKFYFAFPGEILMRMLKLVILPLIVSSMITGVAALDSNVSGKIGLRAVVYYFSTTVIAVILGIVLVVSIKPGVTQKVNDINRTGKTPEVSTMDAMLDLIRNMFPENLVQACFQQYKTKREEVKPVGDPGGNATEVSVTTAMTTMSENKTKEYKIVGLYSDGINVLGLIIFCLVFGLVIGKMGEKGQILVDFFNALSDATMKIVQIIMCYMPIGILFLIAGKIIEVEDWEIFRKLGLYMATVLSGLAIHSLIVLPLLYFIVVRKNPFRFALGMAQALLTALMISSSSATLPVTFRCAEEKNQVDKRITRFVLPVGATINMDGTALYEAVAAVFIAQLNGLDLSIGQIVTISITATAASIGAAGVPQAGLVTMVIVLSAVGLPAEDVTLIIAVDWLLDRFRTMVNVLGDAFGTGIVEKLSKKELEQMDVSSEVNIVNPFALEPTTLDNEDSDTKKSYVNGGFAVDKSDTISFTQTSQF

[2] = target: T2, GLAST, endogenous mouse (mouse (endogenous in primary astrocytes)) (UniProt P56564); experiment: FRET or BRET; spectral FRET in fixed mouse primary astrocytes; immunostained with primary and AF488/Cy3 secondary antibodies; R/G ratio; also cells treated 16 hours with vehicle or 1 uM DAPT
T2 sequence: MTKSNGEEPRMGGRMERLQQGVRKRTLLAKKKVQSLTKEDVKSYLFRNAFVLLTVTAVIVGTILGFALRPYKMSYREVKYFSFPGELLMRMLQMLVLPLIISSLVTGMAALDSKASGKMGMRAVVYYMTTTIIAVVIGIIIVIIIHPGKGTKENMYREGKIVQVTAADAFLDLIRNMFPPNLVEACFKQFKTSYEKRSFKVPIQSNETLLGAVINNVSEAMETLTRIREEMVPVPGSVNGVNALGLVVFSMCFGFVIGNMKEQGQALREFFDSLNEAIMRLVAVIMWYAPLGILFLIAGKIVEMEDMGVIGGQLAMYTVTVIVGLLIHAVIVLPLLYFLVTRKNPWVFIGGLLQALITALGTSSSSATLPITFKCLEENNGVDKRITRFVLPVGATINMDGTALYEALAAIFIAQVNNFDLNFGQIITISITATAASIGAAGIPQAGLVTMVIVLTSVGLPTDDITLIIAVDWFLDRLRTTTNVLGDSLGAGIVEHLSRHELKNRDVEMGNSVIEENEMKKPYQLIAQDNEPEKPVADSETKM

With “PS1 C-terminal fragment (PS1-CTF), endogenous mouse (from UniProt P49769 293-467) (domain or fragment)” the binding [1] was “no binding” and the binding [2] was “no binding”.
